{
  "sequences": {"note": "Protein sequences, listed by entry. Tags and fused reporters are not part of them. Lines headed by an entry give the natural chain unless they say otherwise; changes in a name come on top.", "UniProt P08254": "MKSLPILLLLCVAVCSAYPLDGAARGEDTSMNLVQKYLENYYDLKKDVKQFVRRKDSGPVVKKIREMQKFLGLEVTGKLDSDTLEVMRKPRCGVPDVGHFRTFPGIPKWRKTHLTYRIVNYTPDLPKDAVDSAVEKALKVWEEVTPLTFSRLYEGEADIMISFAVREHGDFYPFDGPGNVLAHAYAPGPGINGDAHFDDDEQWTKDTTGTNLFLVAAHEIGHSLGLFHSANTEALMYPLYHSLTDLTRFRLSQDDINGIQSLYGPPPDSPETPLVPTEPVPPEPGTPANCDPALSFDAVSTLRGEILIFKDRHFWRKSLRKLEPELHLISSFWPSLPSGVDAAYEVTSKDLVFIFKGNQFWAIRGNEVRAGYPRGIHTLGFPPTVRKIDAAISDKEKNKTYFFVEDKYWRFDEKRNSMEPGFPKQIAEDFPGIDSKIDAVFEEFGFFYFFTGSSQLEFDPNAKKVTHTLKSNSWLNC", "UniProt O75582, whole entry, looked up": "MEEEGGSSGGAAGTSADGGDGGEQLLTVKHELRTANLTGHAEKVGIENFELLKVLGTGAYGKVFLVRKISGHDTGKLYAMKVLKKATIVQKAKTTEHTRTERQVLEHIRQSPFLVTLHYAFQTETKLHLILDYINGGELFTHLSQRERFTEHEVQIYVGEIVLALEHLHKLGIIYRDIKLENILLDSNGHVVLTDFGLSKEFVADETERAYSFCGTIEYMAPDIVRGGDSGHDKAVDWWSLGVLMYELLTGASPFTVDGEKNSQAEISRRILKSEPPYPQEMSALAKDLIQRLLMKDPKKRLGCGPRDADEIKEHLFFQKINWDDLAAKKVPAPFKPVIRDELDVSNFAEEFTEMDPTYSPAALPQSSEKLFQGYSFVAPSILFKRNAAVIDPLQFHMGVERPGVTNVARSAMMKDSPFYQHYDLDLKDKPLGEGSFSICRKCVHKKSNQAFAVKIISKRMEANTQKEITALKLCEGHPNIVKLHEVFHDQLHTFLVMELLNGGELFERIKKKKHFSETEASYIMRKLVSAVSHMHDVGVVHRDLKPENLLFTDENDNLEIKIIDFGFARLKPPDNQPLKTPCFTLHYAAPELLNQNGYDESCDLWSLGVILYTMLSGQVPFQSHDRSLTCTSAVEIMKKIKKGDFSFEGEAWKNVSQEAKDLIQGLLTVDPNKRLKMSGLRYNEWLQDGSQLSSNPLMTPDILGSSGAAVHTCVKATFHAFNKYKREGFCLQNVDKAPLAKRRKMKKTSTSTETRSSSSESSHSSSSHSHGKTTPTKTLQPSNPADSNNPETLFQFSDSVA", "UniProt O96013": "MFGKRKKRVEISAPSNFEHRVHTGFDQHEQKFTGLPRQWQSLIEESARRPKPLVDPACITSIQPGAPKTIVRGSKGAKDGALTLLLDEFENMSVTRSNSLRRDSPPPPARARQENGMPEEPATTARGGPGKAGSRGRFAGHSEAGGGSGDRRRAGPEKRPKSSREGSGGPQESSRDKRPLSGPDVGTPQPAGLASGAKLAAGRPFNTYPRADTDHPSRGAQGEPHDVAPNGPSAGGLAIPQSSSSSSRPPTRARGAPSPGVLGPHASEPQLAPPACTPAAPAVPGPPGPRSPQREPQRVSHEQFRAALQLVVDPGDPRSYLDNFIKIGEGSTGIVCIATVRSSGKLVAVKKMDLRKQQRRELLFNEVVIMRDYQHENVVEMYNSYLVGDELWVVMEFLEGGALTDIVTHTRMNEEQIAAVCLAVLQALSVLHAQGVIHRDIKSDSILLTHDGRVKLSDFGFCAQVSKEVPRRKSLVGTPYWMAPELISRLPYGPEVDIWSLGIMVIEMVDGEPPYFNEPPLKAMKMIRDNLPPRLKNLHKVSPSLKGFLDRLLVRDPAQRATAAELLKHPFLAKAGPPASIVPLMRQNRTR", "UniProt P08581": "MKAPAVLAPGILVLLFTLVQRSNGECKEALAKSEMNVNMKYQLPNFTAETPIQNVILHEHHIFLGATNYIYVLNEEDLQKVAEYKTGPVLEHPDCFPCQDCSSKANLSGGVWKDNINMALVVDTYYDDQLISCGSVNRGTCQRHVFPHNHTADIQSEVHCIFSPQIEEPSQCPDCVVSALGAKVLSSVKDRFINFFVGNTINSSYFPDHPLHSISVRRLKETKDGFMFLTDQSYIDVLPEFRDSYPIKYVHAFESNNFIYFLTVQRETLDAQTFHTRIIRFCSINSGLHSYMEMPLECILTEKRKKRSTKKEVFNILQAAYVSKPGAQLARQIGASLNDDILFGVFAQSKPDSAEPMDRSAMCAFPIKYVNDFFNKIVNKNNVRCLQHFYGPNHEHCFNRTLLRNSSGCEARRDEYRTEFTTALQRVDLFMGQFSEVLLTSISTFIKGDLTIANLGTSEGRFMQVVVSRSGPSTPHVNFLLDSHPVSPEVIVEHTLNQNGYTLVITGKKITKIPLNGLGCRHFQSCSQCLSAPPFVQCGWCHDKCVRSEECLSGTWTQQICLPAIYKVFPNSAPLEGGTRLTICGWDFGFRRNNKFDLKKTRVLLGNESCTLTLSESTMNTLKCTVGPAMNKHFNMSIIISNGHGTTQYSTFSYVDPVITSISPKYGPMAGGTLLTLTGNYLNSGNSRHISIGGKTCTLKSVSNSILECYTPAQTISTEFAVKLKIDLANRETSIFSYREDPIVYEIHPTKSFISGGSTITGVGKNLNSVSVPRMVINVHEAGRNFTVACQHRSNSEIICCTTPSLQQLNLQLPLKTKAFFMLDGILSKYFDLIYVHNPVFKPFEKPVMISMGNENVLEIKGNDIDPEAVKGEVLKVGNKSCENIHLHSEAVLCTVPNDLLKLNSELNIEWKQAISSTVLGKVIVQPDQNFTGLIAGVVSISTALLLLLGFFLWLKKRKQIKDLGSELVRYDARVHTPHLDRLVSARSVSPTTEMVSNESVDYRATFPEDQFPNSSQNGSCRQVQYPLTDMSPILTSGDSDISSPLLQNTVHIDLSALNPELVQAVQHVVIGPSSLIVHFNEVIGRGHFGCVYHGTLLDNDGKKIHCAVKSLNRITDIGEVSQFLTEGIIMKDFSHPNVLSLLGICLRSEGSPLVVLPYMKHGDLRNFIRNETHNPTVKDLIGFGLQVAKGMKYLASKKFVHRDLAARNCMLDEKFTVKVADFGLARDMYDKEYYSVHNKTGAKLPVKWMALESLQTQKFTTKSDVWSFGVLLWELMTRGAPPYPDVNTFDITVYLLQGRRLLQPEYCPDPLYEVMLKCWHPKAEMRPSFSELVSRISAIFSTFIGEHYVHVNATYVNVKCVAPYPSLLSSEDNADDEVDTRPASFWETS", "UniProt P08253": "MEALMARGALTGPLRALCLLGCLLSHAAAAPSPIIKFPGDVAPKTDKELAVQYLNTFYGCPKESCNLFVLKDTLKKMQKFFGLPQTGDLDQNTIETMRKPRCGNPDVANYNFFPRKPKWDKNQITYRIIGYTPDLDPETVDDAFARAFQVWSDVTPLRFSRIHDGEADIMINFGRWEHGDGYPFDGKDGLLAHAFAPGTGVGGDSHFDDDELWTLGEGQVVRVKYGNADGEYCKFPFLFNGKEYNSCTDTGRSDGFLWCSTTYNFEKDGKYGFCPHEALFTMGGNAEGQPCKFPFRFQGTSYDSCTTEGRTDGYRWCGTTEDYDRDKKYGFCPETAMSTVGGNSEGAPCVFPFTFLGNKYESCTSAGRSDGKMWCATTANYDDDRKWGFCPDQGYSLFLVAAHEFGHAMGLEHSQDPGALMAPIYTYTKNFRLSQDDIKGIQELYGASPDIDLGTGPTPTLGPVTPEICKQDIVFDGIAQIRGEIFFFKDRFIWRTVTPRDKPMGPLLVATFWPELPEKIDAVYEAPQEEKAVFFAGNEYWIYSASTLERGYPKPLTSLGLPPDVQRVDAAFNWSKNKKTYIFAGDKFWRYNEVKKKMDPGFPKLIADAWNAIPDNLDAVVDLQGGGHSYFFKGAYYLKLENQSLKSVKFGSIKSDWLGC", "UniProt P09237": "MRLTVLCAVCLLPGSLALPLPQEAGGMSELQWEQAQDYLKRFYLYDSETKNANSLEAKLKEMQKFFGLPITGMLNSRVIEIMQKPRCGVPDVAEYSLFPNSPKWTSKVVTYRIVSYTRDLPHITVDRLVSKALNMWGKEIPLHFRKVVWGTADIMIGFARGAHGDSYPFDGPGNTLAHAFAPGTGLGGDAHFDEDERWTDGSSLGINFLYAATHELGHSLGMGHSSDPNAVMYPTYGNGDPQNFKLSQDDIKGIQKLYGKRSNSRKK"},
  "source": "PubChem BioAssay (EPA / NIEHS)",
  "key": {"[1]": {"biological_target": "human Matrix Metalloproteinase-3 (MMP3), MMP3 (gene 4314) (UniProt P08254)", "assay": "NVS_ENZ_hMMP3: NovaScreen (NVS) Enzymatic Assay for human Matrix Metalloproteinase-3 (MMP3) (AID 2283185)", "in_short": "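Cell-free recombinant human MMP3 activity, fluorescence intensity read 1 h after dosing. Primary screen duplicate at 25 uM, actives retested in concentration series; loss of signal vs DMSO baseline.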"}, "[2]": {"biological_target": "human Mitogen- and Stress-activated Protein Kinase-1 (Msk1), RPS6KA5 (gene 9252) (UniProt O75582)", "assay": "NVS_ENZ_hMsk1: NovaScreen (NVS) Enzymatic Assay for human Mitogen- and Stress-activated Protein Kinase-1 (Msk1) (AID 2283187)", "in_short": "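Recombinant kinase with fluorescent substrate; product separated by electrophoretic mobility shift, read 1 h after dosing. Screened in duplicate at 25 uM; hits (e.g. ≥30% inhibition) tested in concentration–response up to 50 uM. DMSO baseline.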"}, "[3]": {"biological_target": "human p21 Activated Kinase 4 (PAK4), PAK4 (gene 10298) (UniProt O96013)", "assay": "NVS_ENZ_hPAK4: NovaScreen (NVS) Enzymatic Assay for human p21 Activated Kinase 4 (PAK4) (AID 2283189)", "procedure": "NVS_ENZ_hPAK4 is a biochemical, single-readout assay that uses extracted gene-proteins in a cell-free assay. Measurements were taken 1 hour after chemical dosing in a 384-well plate.NVS_ENZ_hPAK4 is one of one assay component(s) measured or calculated from the NVS_ENZ_hPAK4 assay. It is designed to make measurements of enzyme activity, a form of enzyme reporter, as detected with fluorescence intensity signals by Fluorescence and electrophoretic mobility shift technology.Data from the assay component NVS_ENZ_hPAK4 was analyzed into 1 assay endpoint. This assay endpoint, NVS_ENZ_hPAK4, was analyzed in the positive analysis fitting direction relative to DMSO as the negative control and baseline of activity. Using a type of enzyme reporter, loss-of-signal activity can be used to understand changes in the enzymatic activity as they relate to the gene PAK4. Furthermore, this assay endpoint can be referred to as a primary readout, because this assay has produced multiple assay endpoints where this one serves a enzymatic activity function. To generalize the intended target to other relatable targets, this assay endpoint is annotated to the kinase intended target family, where the subfamily is serine/threonine kinase.\n(§1) Binding assays used specific radioligands (tritiated, iodinated) with non-radioactive competitive displacement ligands in agonist or antagonist protocols (as indicated) and various reference compounds and inhibitors to titrate specific binding to receptors and transporters. Most enzyme assays (CYPs, kinases, phosphatases, proteases, HDACs) used recombinant protein and specific substrates (fluorescence mostly, some colorimetric and radioactive) and inhibitors, followed by a biochemical separation of substrate and product. All assays for the biochemical HTS were initially run in duplicate at a single concentration (10 uM for CYP450 assays and 25 uM for all others). […] Each assay was run with positive and negative controls, and concurrent controls on every plate. The follow-up (secondary) screen tested active chemical-pairs in concentration series, as well as a few additional assays not tested in the primary screen, some selected negative inactives, and several cases re-run in the concentration series for confirmatory purposes."}, "[4]": {"biological_target": "human MET Proto-Oncogene, Receptor Tyrosine Kinase (MET), MET (gene 4233) (UniProt P08581)", "assay": "NVS_ENZ_hMet: NovaScreen (NVS) Enzymatic Assay for human MET Proto-Oncogene, Receptor Tyrosine Kinase (MET) (AID 2283180)", "in_short": "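Cell-free MET kinase assay using recombinant protein and fluorescent substrate, with mobility-shift separation; read 1 h after dosing. Primary duplicate at 25 uM; actives in singleton concentration-response to 50 uM maximum. Signal loss versus DMSO.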"}, "[5]": {"biological_target": "human Matrix Metalloproteinase-2 (MMP2), MMP2 (gene 4313) (UniProt P08253)", "assay": "NVS_ENZ_hMMP2: NovaScreen (NVS) Enzymatic Assay for human Matrix Metalloproteinase-2 (MMP2) (AID 2283184)", "procedure": "(§2) NVS_ENZ_hMMP2 is a biochemical, single-readout assay that uses extracted gene-proteins in a cell-free assay. Measurements were taken 1 hour after chemical dosing in a 96-well plate.NVS_ENZ_hMMP2 is one of one assay component(s) measured or calculated from the NVS_ENZ_hMMP2 assay. It is designed to make measurements of enzyme activity, a form of enzyme reporter, as detected with fluorescence intensity signals by Fluorescence technology.Data from the assay component NVS_ENZ_hMMP2 was analyzed into 1 assay endpoint. This assay endpoint, NVS_ENZ_hMMP2, was analyzed in the positive analysis fitting direction relative to DMSO as the negative control and baseline of activity. Using a type of enzyme reporter, loss-of-signal activity can be used to understand changes in the enzymatic activity as they relate to the gene MMP2. Furthermore, this assay endpoint can be referred to as a primary readout, because this assay has produced multiple assay endpoints where this one serves a enzymatic activity function. To generalize the intended target to other relatable targets, this assay endpoint is annotated to the protease intended target family, where the subfamily is matrix metalloproteinase.\nas §1"}, "[6]": {"biological_target": "Collagenase 3 (Homo sapiens) (UniProt P45452)", "assay": "NVS_ENZ_hMMP13: NovaScreen (NVS) Enzymatic Assay for human Matrix Metalloproteinase-13 (MMP13) (AID 2283182)", "in_short": "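Recombinant MMP13 cleaving fluorescent substrate, cell-free, measured 1 h after dosing. Primary duplicate screen at 25 uM; actives tested in concentration-response up to 50 uM; loss of signal relative to DMSO.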"}, "[7]": {"biological_target": "human Matrix Metalloproteinase-7 (MMP7), MMP7 (gene 4316) (UniProt P09237)", "assay": "NVS_ENZ_hMMP7: NovaScreen (NVS) Enzymatic Assay for human Matrix Metalloproteinase-7 (MMP7) (AID 2283183)", "procedure": "as §2, with “NVS_ENZ_hMMP7” for “NVS_ENZ_hMMP2”, “plate.NVS_ENZ_hMMP7” for “plate.NVS_ENZ_hMMP2”, “NVS_ENZ_hMMP7,” for “NVS_ENZ_hMMP2,”, “Using a type of enzyme reporter, loss-of-signal activity can be used to understand changes in the enzymatic activity as they relate to the gene MMP2.” left out, “To generalize the intended target to other relatable targets, this assay endpoint is annotated to the protease intended target family, where the subfamily is matrix metalloproteinase.” left out\nBinding assays used specific radioligands (tritiated, iodinated) with non-radioactive competitive displacement ligands in agonist or antagonist protocols (as indicated) and various reference compounds and inhibitors to titrate specific binding to receptors and transporters. Most enzyme assays (CYPs, kinases, phosphatases, proteases, HDACs) used recombinant protein and specific substrates (fluorescence mostly, some colorimetric and radioactive) and inhibitors, followed by a biochemical separation of substrate and product. […]"}},
  "note": "This list was built around the results that the source calls inconclusive (neither active nor inactive); the mix of calls is not that of the screen. Potencies of inconclusive entries are doubtful fits and often do not repeat. Calls of active or inactive are those of the source. How the source made its calls: active means hit-call score of the fitted dose curve at least 0.9, where 1 is the maximum; inconclusive means response in the unintended direction; inactive means score below 0.9.",
  "data": [
    {"smiles": "Nc1c(Cl)cc([N+](=O)[O-])cc1Cl", "values": [
      {"measurement": "outcome", "setting": "[1]", "result": "inactive"}
    ]},
    {"smiles": "CC(C)(C)OOC(C)(C)C", "values": [
      {"measurement": "AC50", "setting": "[2]", "result": "inconclusive: 13.1 µM"}
    ]},
    {"smiles": "CCNS(=O)(=O)C(F)(F)C(F)(F)C(F)(F)C(F)(F)C(F)(F)C(F)(F)C(F)(F)C(F)(F)F", "values": [
      {"measurement": "outcome", "setting": "[3]", "result": "inactive"}
    ]},
    {"smiles": "N#CCCCCC#N", "values": [
      {"measurement": "AC50", "setting": "[3]", "result": "inconclusive: 25 µM"}
    ]},
    {"smiles": "Cc1ccc(O)cc1C", "values": [
      {"measurement": "AC50", "setting": "[4]", "result": "inconclusive: 25.6 µM"}
    ]},
    {"smiles": "CC1(C)CN=C(NN=C(/C=C/c2ccc(C(F)(F)F)cc2)/C=C/c2ccc(C(F)(F)F)cc2)NC1", "values": [
      {"measurement": "AC50", "setting": "[5]", "result": "inconclusive: 5.72 µM"}
    ]},
    {"smiles": "CN(C)CCO", "values": [
      {"measurement": "AC50", "setting": "[1]", "result": "inconclusive: 25 µM"}
    ]},
    {"smiles": "Cc1ccc(N=C=O)cc1N=C=O", "values": [
      {"measurement": "AC50", "setting": "[6]", "result": "active: 4.21 µM"}
    ]},
    {"smiles": "COc1nn(C(=O)NS(=O)(=O)c2ccccc2OC(F)(F)F)c(=O)n1C", "values": [
      {"measurement": "AC50", "setting": "[3]", "result": "active: 17.4 µM"}
    ]},
    {"smiles": "N#Cc1c(Cl)c(Cl)c(Cl)c(C#N)c1Cl", "values": [
      {"measurement": "AC50", "setting": "[5]", "result": "inconclusive: 0.406 µM"}
    ]},
    {"smiles": "[As]#[In]", "values": [
      {"measurement": "AC50", "setting": "[6]", "result": "inconclusive: 0.388 µM"}
    ]},
    {"smiles": "CO/C=C(/C(=O)OC)c1ccccc1Oc1cc(Oc2ccccc2C#N)ncn1", "values": [
      {"measurement": "outcome", "setting": "[1]", "result": "inactive"}
    ]},
    {"smiles": "C=CC(=O)OCCCCCC(C)C", "values": [
      {"measurement": "AC50", "setting": "[5]", "result": "inconclusive: 25 µM"}
    ]},
    {"smiles": "N#Cc1cccnc1", "values": [
      {"measurement": "outcome", "setting": "[4]", "result": "inactive"},
      {"measurement": "AC50", "setting": "[2]", "result": "inconclusive: 25 µM"}
    ]},
    {"smiles": "COc1ccc(C(c2ccc(OC)cc2)C(Cl)(Cl)Cl)cc1", "values": [
      {"measurement": "AC50", "setting": "[6]", "result": "inconclusive: 6.07 µM"}
    ]},
    {"smiles": "CC1(C)C(C=C(Cl)Cl)C1C(=O)OC(C#N)c1ccc(F)c(Oc2ccccc2)c1", "note": "(centres undefined)", "values": [
      {"measurement": "AC50", "setting": "[1]", "result": "inconclusive: 0.259 µM"}
    ]},
    {"smiles": "C[C@H]1[C@H](c2ccc(Cl)cc2)SC(=O)N1C(=O)NC1CCCCC1", "values": [
      {"measurement": "AC50", "setting": "[7]", "result": "inconclusive: 0.363 µM"}
    ]},
    {"smiles": "O=[N+]([O-])c1ccc(Oc2ccc(Cl)cc2Cl)cc1", "values": [
      {"measurement": "AC50", "setting": "[6]", "result": "inconclusive: 25 µM"},
      {"measurement": "AC50", "setting": "[5]", "result": "inconclusive: 25 µM"}
    ]},
    {"smiles": "O=[N+]([O-])c1ccc(Cl)c(Cl)c1", "values": [
      {"measurement": "AC50", "setting": "[3]", "result": "inconclusive: 0.0627 µM"}
    ]},
    {"smiles": "Clc1ccccc1-c1nnc(-c2ccccc2Cl)nn1", "values": [
      {"measurement": "AC50", "setting": "[1]", "result": "inconclusive: 6.69 µM"}
    ]},
    {"smiles": "CCOC(=O)C(C)OC(=O)c1cc(Oc2ccc(C(F)(F)F)cc2Cl)ccc1[N+](=O)[O-]", "note": "(centres undefined)", "values": [
      {"measurement": "outcome", "setting": "[5]", "result": "inactive"}
    ]},
    {"smiles": "O=S(=O)(O)C(F)(F)C(F)(F)C(F)(F)C(F)(F)C(F)(F)C(F)(F)F", "values": [
      {"measurement": "AC50", "setting": "[1]", "result": "inconclusive: 25 µM"}
    ]},
    {"smiles": "CCCCN(CCCC)SN(C)C(=O)Oc1cccc2c1OC(C)(C)C2", "values": [
      {"measurement": "AC50", "setting": "[1]", "result": "inconclusive: 25 µM"}
    ]},
    {"smiles": "CC(Cc1ccc(OCC(=O)O)cc1)NCC(O)c1csc(C(F)(F)F)n1", "note": "(centres undefined)", "values": [
      {"measurement": "AC50", "setting": "[5]", "result": "active: 2.3 µM"},
      {"measurement": "AC50", "setting": "[1]", "result": "inconclusive: 16 µM"}
    ]},
    {"smiles": "CNC(=S)S", "values": [
      {"measurement": "AC50", "setting": "[6]", "result": "inconclusive: 0.201 µM"}
    ]},
    {"smiles": "CCN(CC)C(=O)C(C)Oc1cccc2ccccc12", "note": "(centres undefined)", "values": [
      {"measurement": "AC50", "setting": "[5]", "result": "inconclusive: 0.149 µM"}
    ]},
    {"smiles": "c1nc[nH]n1", "values": [
      {"measurement": "outcome", "setting": "[5]", "result": "inactive"}
    ]},
    {"smiles": "O=C(O)CC(O)(CC(=O)O)C(=O)O", "values": [
      {"measurement": "AC50", "setting": "[3]", "result": "inconclusive: 0.816 µM"}
    ]},
    {"smiles": "CCCCCCCCCC[N+](C)(C)CCCCCCCCCC", "values": [
      {"measurement": "outcome", "setting": "[6]", "result": "inactive"}
    ]},
    {"smiles": "Cc1ccn2nc(S(=O)(=O)Nc3c(F)cccc3F)nc2n1", "values": [
      {"measurement": "AC50", "setting": "[6]", "result": "inconclusive: 25 µM"}
    ]},
    {"smiles": "CC(C)OC(=O)Nc1cccc(Cl)c1", "values": [
      {"measurement": "AC50", "setting": "[1]", "result": "inconclusive: 25 µM"}
    ]}
  ]
}
